Measured values reported in PubChem BioAssay AID493014 (National Center for Advancing Translational Sciences (NCATS), 2011).
The list shows a part of the results. These are further read-outs of the screen, such as a control signal, another cell line or another target. No call is given for them. Compounds called inactive in the main read-out are mostly missing here. The note in brackets gives the kind of curve behind each potency; many fits are weak.

Test: qHTS Assay to Find Inhibitors of Chronic Active B-Cell Receptor Signaling
Settings: ABC-DLBCL IkBa-CBG/CBR reporter, luminescence ratio (green luciferase fused to IkBa over red control in TMD8 lymphoma cells), 4 h
In short: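 Doxycycline induced both beetle luciferases in TMD8 lymphoma cells; IKK-driven degradation limits the IkappaBalpha-fused green signal, while red luminescence normalises for cell number and nonspecific effects. Compounds tested up to 46 uM, 4 hrs.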

[1] = measured here: CBR red luminescence, cell number
[2] = measured here: IkBa-CBG green luminescence

Compound	AC50 [1]	AC50 [2]
COc1ccc(N2CC(C(=O)Nc3nnc(SCc4cccnc4)s3)CC2=O)cc1 (configuration not stated)	1.58 µM [rising, single point]	
CCOC(=O)C1=C(CSc2nc(CC)c(C)cc2C#N)OC(N)=C(C#N)C1c1ccccc1 (configuration not stated)	29.1 µM [falling, partial curve, poor fit]	
CCCCN1C(=O)C(=O)N(c2ccccc2)C1=S	0.411 µM [falling, full curve, poor fit]	
COc1ccc(C(=O)NCC(=O)c2ccccc2)cc1	6.31 µM [falling, partial curve, poor fit]	
COc1cc(C(=O)NCCCNc2nc3cc(C)cc(C)c3cc2C#N)cc(OC)c1OC	6.31 µM [rising, full curve, poor fit]	
Cc1c(/C=C/C(=O)c2ccccc2)cnn1C	12.6 µM [falling, single point]	
Cc1nc([N+](=O)[O-])c(Br)n1CC(=O)c1ccc(Br)cc1	20.6 µM [falling, partial curve]	
NS(=O)(=O)c1cccc(NC(=O)CSc2ncc(C(F)(F)F)cc2Cl)c1	0.259 µM [rising, full curve, poor fit]	
Cc1ccc(C)c(Cn2nnc3c(=O)[nH]c(C4CCN(C(=O)c5cccs5)CC4)nc32)c1	20.6 µM [falling, single point]	
COc1ccc(CN([C@H](CO)CC(C)C)S(=O)(=O)N(Cc2ccccc2)[C@H](CO)CC(C)C)cc1	18.4 µM [falling, partial curve, poor fit]	
C=CCc1c(C)nc(SC)nc1Nc1ccc(C(C)=O)cc1	22.4 µM [falling, single point]	
C/C(=N/NC(=O)CNC(=O)C1COc2ccccc2O1)c1ccc2c(c1)OCCO2 (configuration not stated)	35.5 µM [falling, partial curve, poor fit]	
CCOC(=O)N1C=CC(C)=C[C@@H]2[C@@H](N3C(=O)c4ccccc4C3=O)C(=O)N21	20.6 µM [rising, partial curve, poor fit]	
CC(=O)NC(c1ccco1)c1ccc2cccnc2c1O (configuration not stated)	15.8 µM [falling, partial curve]	11.2 µM [falling, partial curve, poor fit]
Cc1ccc2scc(N3CCCC(C)C3)c(=O)c2c1 (configuration not stated)	31.6 µM [falling, single point]	
COc1ccc(-n2c(SCC(=O)Nc3ccc(Br)cc3)nc(O)cc2=O)cc1	35.5 µM [falling, single point]	
CCN(CC)CCN1C(=O)C(O)=C(C(=O)c2cc3cccc(OC)c3o2)C1c1cccs1 (configuration not stated)	1.26 µM [rising, full curve]	
CCc1noc(C)c1C(=O)Nc1ccc(-c2nnc3n2CCCCC3)cc1	29.1 µM [rising, single point]	
O=[N+]([O-])c1cc([N+](=O)[O-])c2cc3ccccc3nc2c1	2.82 µM [falling, single point]	
CCOc1ccc(C(C)=O)cc1COc1ccc(-c2nnco2)cc1	15.8 µM [falling, single point]	
CCc1cc(=O)n2[nH]c(C)c(-c3ccc(OC)cc3)c2n1	35.5 µM [falling, single point]	

Copied from the list:
In AC50 [1], COc1ccc(CN([C@H](CO)CC(C)C)S(=O)(=O)N(Cc2ccccc2)[C@H](CO)CC(C)C)cc1 shows 18.4 µM [falling, partial curve, poor fit]
In AC50 [2], CC(=O)NC(c1ccco1)c1ccc2cccnc2c1O (configuration not stated) shows 11.2 µM [falling, partial curve, poor fit]

In the list so far, two have a thiophene ring, fused or not.
Compound	AC50 [1]	AC50 [2]
Cc1ccc(C)c(Cn2nnc3c(=O)[nH]c(C4CCN(C(=O)c5cccs5)CC4)nc32)c1	20.6 µM [falling, single point]	
CCN(CC)CCN1C(=O)C(O)=C(C(=O)c2cc3cccc(OC)c3o2)C1c1cccs1 (configuration not stated)	1.26 µM [rising, full curve]	

Remaining list, next part.

Compound	AC50 [1]	AC50 [2]
CN(C)CCCNC(=O)c1cc(Br)ccc1O	3.98 µM [rising, partial curve, poor fit]	
O=C(NC1CCCCC1)c1ccc(S(=O)(=O)c2ccccc2)cc1	3.98 µM [rising, full curve, poor fit]	
COC(=O)C1CCN(C(=O)COc2cc3sc(C)nc3c3sccc23)CC1	1.46 µM [falling, partial curve, poor fit]	
COc1cccc(CN(C)C(=O)C2CCN(S(=O)(=O)c3cccs3)CC2)c1OC	2.59 µM [rising, full curve, poor fit]	
O=S(=O)(N/N=C/c1cn(Cc2ccccc2)c2ccccc12)c1ccccc1	15.8 µM [falling, single point]	
Cc1ccc(S(=O)(=O)NCC2CCC(C(=O)NCc3ccco3)CC2)cc1 (configuration not stated)	3.66 µM [falling, single point]	4.61 µM [rising, single point]
CC(C)CCN1CCN(Cc2cccc(-n3cccn3)c2)CC1CCO (configuration not stated)	1.58 µM [rising, partial curve, poor fit]	
COc1ccccc1NC(=O)CSc1nnc(C)n1CCc1ccccc1	25.1 µM [falling, single point]	
CS(=O)(=O)N1CCC(C(=O)Nc2ccccc2Sc2ccccc2)CC1	23.1 µM [rising, single point]	
C=CCN=Cc1sc2ccc(OCC)cc2c1O	3.26 µM [rising, single point]	
Cc1ccc(NS(=O)(=O)c2sc3ccc(Cl)cc3c2C)cc1	14.1 µM [falling, partial curve, poor fit]	
O=C(NCCCNCCCNC(=O)c1ccccn1)c1ccccn1	2.31 µM [rising, full curve, poor fit]	
COC(=O)c1c(NC(=O)CS(=O)(=O)c2ccc(C)cc2)sc2c1CCCCC2	8.91 µM [rising, single point]	
CC1CCc2nc(NC(=O)c3cc(C(C)(C)C)nn3C)sc2C1 (configuration not stated)	12.6 µM [rising, single point]	
NC(=O)c1c(NC(=O)COC(=O)c2ccc(O)c(Cl)c2)sc2c1CCCC2	2.91 µM [falling, single point]	
COc1ccc(OC)c(-n2nnnc2SCC(=O)Nc2nc(C)c(C)s2)c1	14.6 µM [falling, single point]	
O=c1c2cccc3c2c(nn1CN1CCOCC1)-c1ccccc1-3	25.1 µM [falling, partial curve, poor fit]	
CN1CCN(Cc2oc(CO)cc(=O)c2O)CC1	0.103 µM [falling, full curve, poor fit]	
Cc1ccc(-c2csc3nc(C)n(N)c(=O)c23)o1	0.0058 µM [rising, full curve, poor fit]	
COc1ccc(-c2csc(NC(=S)NC(=O)c3ccco3)n2)cc1	1.26 µM [rising, full curve, poor fit]	
Cc1ccc2cc(CN(CCCO)S(=O)(=O)c3ccccc3F)c(=O)[nH]c2c1C	3.16 µM [falling, full curve]	

Compound	AC50 [1]	AC50 [2]
COc1ccccc1CNCC(O)Cn1c2ccccc2c2ccccc21 (configuration not stated)	11.6 µM [falling, partial curve, poor fit]	
O=C(COC(=O)CNC(=O)c1ccccc1)Nc1ccccc1Cl	17.8 µM [rising, partial curve, poor fit]	
COc1cccc(NC(=O)CSc2nc(=O)[nH]c3c2CCCC3)c1	14.1 µM [falling, single point]	
CC(CO)(CO)NCc1ccc(-c2ccccc2)cc1	16.4 µM [rising, single point]	
O=c1oc2ccccc2c(NCc2ccccc2)c1[N+](=O)[O-]	4.11 µM [falling, partial curve]	
O=C(CCn1cnc2ccccc2c1=O)Nc1ccc(S(=O)(=O)N2CCCCC2)cc1	3.55 µM [falling, partial curve, poor fit]	
CCCC(C)c1nnc(NC(=O)CCS(=O)(=O)Cc2ccccc2)s1 (configuration not stated)	2 µM [falling, full curve, poor fit]	
O=Cc1cc2ccccc2nc1SCc1ccc(Cl)cc1	1.78 µM [rising, full curve, poor fit]	3.16 µM [falling, single point]
Cc1ccc(-c2nc(-c3ccncc3)no2)cc1	1 µM [rising, partial curve, poor fit]	
Cc1ccc(C(C)C)c(OCC(=O)Nc2cccc(S(=O)(=O)NC3=NCCCCC3)c2)c1	25.1 µM [falling, single point]	
CCCCNc1ccc2nsnc2c1[N+](=O)[O-]	20.6 µM [rising, partial curve, poor fit]	
COc1ccccc1/C=C/C=N/NC(=O)Cc1cccs1	20.6 µM [falling, partial curve, poor fit]	
COc1ccc(C(=O)c2ccccc2)cc1Br	11.2 µM [rising, partial curve]	
CC(C)C(OC(=O)CCC(=O)Nc1nccs1)C(=O)NC1CCCCC1 (configuration not stated)	12.6 µM [falling, partial curve, poor fit]	
COc1ccccc1CNC(=O)c1cccc(NC(=O)c2ccccc2)c1	35.5 µM [falling, single point]	
CCCCn1c(SC(C)C(=O)NCC2CCCO2)nc2cc(C(=O)OC)ccc2c1=O (configuration not stated)	1.64 µM [falling, partial curve, poor fit]	
O=C(Nc1cccc(Cl)c1)N1N=CCC1c1ccccc1 (configuration not stated)	2.51 µM [rising, full curve, poor fit]	
CN1CCN(NC(=O)Nc2ccc(Br)cc2)CC1	3.55 µM [rising, full curve]	
COc1cc(C)ccc1OCCOc1c(C)cccc1Cl	17.8 µM [rising, partial curve]	
Cc1csc(NC(=O)CSc2nc3ccccc3c3c2CCCC3)n1	2.59 µM [falling, full curve]	16.4 µM [rising, partial curve, poor fit]
CC(C)CC(NC(=O)c1ccc(Cl)cc1)C(=O)OCC(=O)c1ccc2c(c1)NC(=O)CO2 (configuration not stated)	16.4 µM [rising, partial curve]	
